{"source": "patent US20230382819A1", "about": "“PROCESSES FOR SYNTHESIS OF ALPHA-EMITTING RADIOPHARMACEUTICALS” (priority 2020, published 2023)", "key": {"[1]": {"test_system": "NCI-H727 lung carcinoid xenograft tumors", "assay": "Anti-tumor efficacy, H727 xenograft", "type": "in vivo, SCID mice", "settings": "144.3 kBq single bolus; endpoint 2000 mm^3 tumor volume"}, "[2]": {"test_system": "NCI-H69 human SCLC xenograft tumors", "assay": "Anti-tumor efficacy, H69 xenograft", "type": "in vivo, SCID mice", "settings": "single treatment"}}, "note": "At least one peptide structure holds a part that was inferred or is arguable (an end, a ring closure or a residue)."}
{"molecule": "C[C@@H](O)[C@H](NC(=O)[C@@H]1CSSC[C@H](NC(=O)[C@@H](Cc2ccccc2)NC(=O)CN2CCN(CC(=O)O)CCN(CC(=O)O)CCN(CC(=O)O)CC2)C(=O)N[C@@H](Cc2ccc(O)cc2)C(=O)N[C@H](Cc2c[nH]c3ccccc23)C(=O)N[C@@H](CCCCN)C(=O)N[C@@H]([C@@H](C)O)C(=O)N1)C(=O)O", "note": "[^225Ac-DOTATATE, metal not drawn]", "values": [{"measurement": "median survival", "setting": "[1]", "value": "62.7 ± 7.9", "unit": "days"}, {"measurement": "therapeutic effects in H69 tumor-bearing animals compared to H727 tumor bearing animals", "setting": "[2]", "value": "significantly greater"}]}
